According to the supplement of paper PMC6411743:
± gives the standard deviation of the averaged measurements. The list shows a part of the results, in another mix than the full data.

Tests used:
Assay in all cases: NP40-soluble protein abundance relative to vehicle (solubility fold change) (ratio); higher = more soluble protein in presence of AMP-PNP
SERGEF = molecular target: T1, SERGEF (UniProt Q9UGK8)
T1 sequence (whole entry): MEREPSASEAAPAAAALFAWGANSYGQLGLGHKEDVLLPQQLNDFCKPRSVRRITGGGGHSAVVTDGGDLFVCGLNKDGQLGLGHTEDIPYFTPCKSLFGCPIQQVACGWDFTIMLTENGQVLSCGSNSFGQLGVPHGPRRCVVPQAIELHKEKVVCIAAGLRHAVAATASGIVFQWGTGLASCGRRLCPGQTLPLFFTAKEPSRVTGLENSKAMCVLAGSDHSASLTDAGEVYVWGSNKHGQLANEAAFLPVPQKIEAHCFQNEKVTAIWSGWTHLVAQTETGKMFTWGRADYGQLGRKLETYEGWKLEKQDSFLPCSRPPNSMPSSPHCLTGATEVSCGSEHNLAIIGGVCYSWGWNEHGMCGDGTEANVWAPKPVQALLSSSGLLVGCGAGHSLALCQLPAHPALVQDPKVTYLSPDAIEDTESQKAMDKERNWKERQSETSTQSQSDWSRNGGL
Method in brief: (§1)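 Across three independent experiments, values are fold changes against the detergent-processed vehicle for each replicate, based on vsn-normalised intensities. The samples were Jurkat crude lysate treated with eight concentrations (0.1 to 10 mM) for 10 min at room temperature and then 3 min at 37 °C. Lysate was solubilised with 0.8% NP40 and benzonase, ultracentrifuged, and the supernatant analysed by TMT-labelled LC-MS/MS.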

SNX6 = molecular target: T2, SNX6 (UniProt Q9UNH7)
T2 sequence (whole entry): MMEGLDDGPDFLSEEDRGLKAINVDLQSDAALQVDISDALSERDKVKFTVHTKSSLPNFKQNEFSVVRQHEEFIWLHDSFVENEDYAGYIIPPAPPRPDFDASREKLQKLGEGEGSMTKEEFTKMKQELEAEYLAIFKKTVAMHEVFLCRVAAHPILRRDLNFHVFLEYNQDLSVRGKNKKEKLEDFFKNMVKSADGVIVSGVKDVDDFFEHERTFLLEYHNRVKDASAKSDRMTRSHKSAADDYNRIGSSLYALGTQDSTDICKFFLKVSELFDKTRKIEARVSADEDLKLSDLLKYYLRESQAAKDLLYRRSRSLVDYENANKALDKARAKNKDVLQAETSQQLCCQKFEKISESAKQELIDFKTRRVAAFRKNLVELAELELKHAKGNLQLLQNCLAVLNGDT
Method in brief: as §1

[1] = molecular target: T3, UniProt Q9UJ68 and related entries
T3 sequence (whole entry): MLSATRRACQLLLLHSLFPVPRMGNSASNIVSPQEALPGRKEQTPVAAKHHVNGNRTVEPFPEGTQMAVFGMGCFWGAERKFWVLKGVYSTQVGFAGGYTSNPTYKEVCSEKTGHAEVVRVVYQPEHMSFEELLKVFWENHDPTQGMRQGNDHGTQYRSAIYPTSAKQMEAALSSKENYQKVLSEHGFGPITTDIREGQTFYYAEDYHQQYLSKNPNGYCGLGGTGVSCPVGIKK
Method in brief: as §1

[2] = molecular target: T4, UniProt Q9UJS0 and related entries
T4 sequence (whole entry): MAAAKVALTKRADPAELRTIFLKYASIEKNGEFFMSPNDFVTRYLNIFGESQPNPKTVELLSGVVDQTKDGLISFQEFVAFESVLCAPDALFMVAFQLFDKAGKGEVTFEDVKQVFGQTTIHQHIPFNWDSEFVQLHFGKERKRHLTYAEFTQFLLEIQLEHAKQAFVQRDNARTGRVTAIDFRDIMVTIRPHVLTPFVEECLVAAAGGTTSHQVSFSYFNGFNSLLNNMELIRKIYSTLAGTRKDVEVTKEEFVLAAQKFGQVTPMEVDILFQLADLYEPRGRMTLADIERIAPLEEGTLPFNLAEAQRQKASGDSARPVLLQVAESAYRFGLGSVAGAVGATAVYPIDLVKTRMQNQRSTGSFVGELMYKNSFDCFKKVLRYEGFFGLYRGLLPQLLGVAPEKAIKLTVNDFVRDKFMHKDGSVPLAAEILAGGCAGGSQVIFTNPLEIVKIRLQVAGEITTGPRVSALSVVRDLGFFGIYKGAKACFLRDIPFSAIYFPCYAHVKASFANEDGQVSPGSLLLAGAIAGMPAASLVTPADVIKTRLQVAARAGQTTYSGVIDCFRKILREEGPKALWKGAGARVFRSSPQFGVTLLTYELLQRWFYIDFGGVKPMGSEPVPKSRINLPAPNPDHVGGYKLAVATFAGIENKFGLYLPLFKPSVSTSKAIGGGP
Method in brief: as §1

UniProt Q9ULD0 = molecular target: T5, UniProt Q9ULD0
T5 sequence (whole entry): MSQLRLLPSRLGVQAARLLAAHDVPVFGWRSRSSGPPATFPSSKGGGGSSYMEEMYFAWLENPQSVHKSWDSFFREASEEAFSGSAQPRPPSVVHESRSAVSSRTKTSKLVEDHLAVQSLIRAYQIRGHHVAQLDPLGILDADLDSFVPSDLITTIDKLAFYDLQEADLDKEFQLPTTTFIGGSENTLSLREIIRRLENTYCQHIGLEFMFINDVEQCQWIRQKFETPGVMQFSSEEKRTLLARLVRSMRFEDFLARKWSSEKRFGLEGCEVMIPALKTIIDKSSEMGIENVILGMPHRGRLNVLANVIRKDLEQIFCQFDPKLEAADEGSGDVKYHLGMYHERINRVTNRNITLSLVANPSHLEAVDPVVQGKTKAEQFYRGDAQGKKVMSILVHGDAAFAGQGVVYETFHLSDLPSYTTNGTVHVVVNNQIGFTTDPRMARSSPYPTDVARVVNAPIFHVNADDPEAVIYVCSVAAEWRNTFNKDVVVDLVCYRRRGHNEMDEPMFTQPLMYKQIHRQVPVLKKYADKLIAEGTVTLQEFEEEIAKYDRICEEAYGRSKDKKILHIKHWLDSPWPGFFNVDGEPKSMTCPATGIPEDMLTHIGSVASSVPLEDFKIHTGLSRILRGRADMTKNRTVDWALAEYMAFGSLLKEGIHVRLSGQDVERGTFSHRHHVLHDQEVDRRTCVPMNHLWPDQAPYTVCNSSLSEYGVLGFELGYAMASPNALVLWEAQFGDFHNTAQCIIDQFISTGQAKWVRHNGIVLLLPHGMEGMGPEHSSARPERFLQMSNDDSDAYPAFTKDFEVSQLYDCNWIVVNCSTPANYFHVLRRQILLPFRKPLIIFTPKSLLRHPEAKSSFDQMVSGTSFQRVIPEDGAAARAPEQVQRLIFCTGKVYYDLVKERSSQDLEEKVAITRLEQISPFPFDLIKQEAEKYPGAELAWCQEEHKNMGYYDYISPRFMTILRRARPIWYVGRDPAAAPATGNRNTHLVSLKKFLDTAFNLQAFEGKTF
Method in brief: as §1

[3] = molecular target: T6, UniProt Q9UPU7 and related entries; conditions: concentration: 1mM
T6 sequence (whole entry): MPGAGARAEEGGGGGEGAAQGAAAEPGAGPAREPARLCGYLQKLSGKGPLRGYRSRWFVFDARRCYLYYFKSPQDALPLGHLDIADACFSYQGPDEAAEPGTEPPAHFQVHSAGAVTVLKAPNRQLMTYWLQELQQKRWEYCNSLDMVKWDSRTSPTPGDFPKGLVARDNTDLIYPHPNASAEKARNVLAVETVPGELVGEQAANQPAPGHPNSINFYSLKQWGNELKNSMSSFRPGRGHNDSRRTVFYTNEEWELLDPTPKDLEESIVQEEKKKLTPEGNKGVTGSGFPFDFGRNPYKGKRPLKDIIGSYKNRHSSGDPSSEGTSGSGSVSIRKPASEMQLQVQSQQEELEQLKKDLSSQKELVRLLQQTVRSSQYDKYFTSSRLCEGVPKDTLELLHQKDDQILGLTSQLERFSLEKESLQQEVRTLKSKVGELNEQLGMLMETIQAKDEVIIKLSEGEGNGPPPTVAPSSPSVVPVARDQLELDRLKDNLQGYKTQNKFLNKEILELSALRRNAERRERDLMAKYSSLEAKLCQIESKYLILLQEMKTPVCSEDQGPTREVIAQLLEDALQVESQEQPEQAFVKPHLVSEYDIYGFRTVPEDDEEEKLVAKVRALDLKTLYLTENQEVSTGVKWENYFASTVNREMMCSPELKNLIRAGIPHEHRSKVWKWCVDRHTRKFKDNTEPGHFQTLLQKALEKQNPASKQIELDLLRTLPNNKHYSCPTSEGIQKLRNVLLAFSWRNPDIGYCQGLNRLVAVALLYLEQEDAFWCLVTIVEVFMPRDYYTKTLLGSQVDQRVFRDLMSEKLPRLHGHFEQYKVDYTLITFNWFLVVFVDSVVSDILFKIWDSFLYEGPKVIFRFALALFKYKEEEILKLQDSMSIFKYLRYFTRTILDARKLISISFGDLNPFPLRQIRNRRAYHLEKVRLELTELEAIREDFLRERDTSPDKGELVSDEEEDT
Method in brief: as §1

Question: For `Nc1ncnc2c1ncn2[C@@H]1O[C@H](COP(=O)(O)OP(=O)(O)NP(=O)(O)O)[C@@H](O)[C@H]1O` [adenylyl imidodiphosphate], which NP40-soluble protein abundance (SERGEF; concentration: 6mM) is on record?
Answer: The NP40-soluble protein abundance was 0.985 ± 0.048.

Question: What about the NP40-soluble protein abundance (SERGEF; concentration: 8mM) of the same molecule?
Answer: Its NP40-soluble protein abundance is 0.996 ± 0.031.

Question: And the NP40-soluble protein abundance (SERGEF; concentration: 10mM)?
Answer: Its NP40-soluble protein abundance is 0.951 ± 0.048.

Question: And the NP40-soluble protein abundance (SNX6; concentration: 1mM)?
Answer: The NP40-soluble protein abundance was 0.992 ± 0.031.

Question: What about the NP40-soluble protein abundance (SNX6; concentration: 2mM) of the same molecule?
Answer: Its NP40-soluble protein abundance is 1.03 ± 0.12.

Question: And the NP40-soluble protein abundance (SNX6; concentration: 4mM)?
Answer: The NP40-soluble protein abundance was 0.991 ± 0.069.

Question: And the NP40-soluble protein abundance (SNX6; concentration: 6mM)?
Answer: The NP40-soluble protein abundance was 1.03 ± 0.076.

Question: What about the NP40-soluble protein abundance (SNX6; concentration: 8mM) of the same molecule?
Answer: The NP40-soluble protein abundance was 1 ± 0.077.

Question: And the NP40-soluble protein abundance (SNX6; concentration: 10mM)?
Answer: The NP40-soluble protein abundance was 1.03 ± 0.079.

Question: And the NP40-soluble protein abundance ([1]; concentration: 1mM)?
Answer: Its NP40-soluble protein abundance is 1.06 ± 0.11.

Question: And the NP40-soluble protein abundance ([1]; concentration: 2mM)?
Answer: The NP40-soluble protein abundance was 1.03 ± 0.028.

Question: What about the NP40-soluble protein abundance ([1]; concentration: 4mM) of the same molecule?
Answer: The NP40-soluble protein abundance was 0.994 ± 0.041.

Question: What about the NP40-soluble protein abundance ([1]; concentration: 6mM) of the same molecule?
Answer: The NP40-soluble protein abundance was 0.995 ± 0.035.

Question: What about the NP40-soluble protein abundance ([1]; concentration: 8mM) of the same molecule?
Answer: Its NP40-soluble protein abundance is 0.997 ± 0.037.

Question: What about the NP40-soluble protein abundance ([1]; concentration: 10mM) of the same molecule?
Answer: Its NP40-soluble protein abundance is 1.001 ± 0.0044.

Question: And the NP40-soluble protein abundance ([2]; concentration: 1mM)?
Answer: The NP40-soluble protein abundance was 1.02 ± 0.016.

Question: What about the NP40-soluble protein abundance ([2]; concentration: 2mM) of the same molecule?
Answer: Its NP40-soluble protein abundance is 1.01 ± 0.047.

Question: And the NP40-soluble protein abundance ([2]; concentration: 4mM)?
Answer: The NP40-soluble protein abundance was 1.018 ± 0.0089.

Question: And the NP40-soluble protein abundance ([2]; concentration: 6mM)?
Answer: The NP40-soluble protein abundance was 1.01 ± 0.035.

Question: And the NP40-soluble protein abundance ([2]; concentration: 8mM)?
Answer: The NP40-soluble protein abundance was 0.998 ± 0.029.

Question: What about the NP40-soluble protein abundance ([2]; concentration: 10mM) of the same molecule?
Answer: The NP40-soluble protein abundance was 1.01 ± 0.049.

Question: And the NP40-soluble protein abundance (UniProt Q9ULD0; concentration: 1mM)?
Answer: Its NP40-soluble protein abundance is 0.961 ± 0.04.

Question: And the NP40-soluble protein abundance (UniProt Q9ULD0; concentration: 2mM)?
Answer: The NP40-soluble protein abundance was 0.955 ± 0.076.

Question: And the NP40-soluble protein abundance (UniProt Q9ULD0; concentration: 4mM)?
Answer: Its NP40-soluble protein abundance is 0.9642 ± 0.0088.

Question: What about the NP40-soluble protein abundance (UniProt Q9ULD0; concentration: 6mM) of the same molecule?
Answer: Its NP40-soluble protein abundance is 0.987 ± 0.019.

Question: And the NP40-soluble protein abundance (UniProt Q9ULD0; concentration: 8mM)?
Answer: Its NP40-soluble protein abundance is 0.964 ± 0.056.

Question: What about the NP40-soluble protein abundance (UniProt Q9ULD0; concentration: 10mM) of the same molecule?
Answer: Its NP40-soluble protein abundance is 0.956 ± 0.052.

Question: And the NP40-soluble protein abundance [3]?
Answer: The NP40-soluble protein abundance was 0.996 ± 0.013.
